Test results: article PMC6600395
The comparison behind a weaker result is the experiment's own reference, which may not be listed here. For some assays here: The exact form of at least one protein or probe is not confirmed. For some assays here: At least one verdict was read from the data and is not stated in words by the source.

Assays:
[1] = target: p53CT (C-terminal segment) (human) (UniProt P04637); assay: EMSA; conditions: weaker than non-B substrates, 50 ng pBSK/SmaI, EMSA: 5 mM Tris-HCl pH 7.6, 0.5 mM EDTA, 0.5 mM DTT, 0.01% Triton X-100, 50 mM KCl, 15 min on ice (agarose 4 °C), pBSK/SmaI competitor in PAGE EMSA, recombinant protein, residues 320-393
[2] = target: p53 (wild type, full length) (human) (UniProt P04637); assay: EMSA; conditions: EMSA: 5 mM Tris-HCl pH 7.6, 0.5 mM EDTA, 0.5 mM DTT, 0.01% Triton X-100, 50 mM KCl, 15 min on ice (agarose 4 °C), pBSK/SmaI competitor in PAGE EMSA, recombinant protein, residues 1-393, folded or branched DNA
[3] = target: p53 (wild type, full length) (human) (UniProt P04637); assay: ELISA; conditions: Kd only in figure, ELISA: same without EDTA, 4 °C, 20 min, recombinant protein, residues 1-393, folded or branched DNA
[4] = target: p53CT (C-terminal segment) (human) (UniProt P04637); assay: ELISA; conditions: 2 ng/well competitor, Kd only in figure, ELISA: same without EDTA, 4 °C, 20 min, recombinant protein, residues 320-393

ACCAGAGCTGATGGTATCCTAAGTTGACGACCCCGAGGGTGCCGCAAGGA (double strand) [NON]
binding result ([1]; label: 32P): binds more weakly

GACGGTATCGATAAGAGACATGCCTAGACATGCCTCTTGATATCGAATTC (double strand) [CON (p53CON)]
binding result ([1]; label: 32P (EMSA), biotin (ELISA)): binds more weakly

GGGGCCTTAGGTAAAAAAAAAAAAAAAAAAAAAAAAAAAAAAAAAAATGGTACCGCGG / CCGCGGTACCATTACCTAAGGCCCCAAC [ANB]
binding result ([2]; weaker than TNB, 75 ng pBSK/SmaI competitor): binds more weakly
binding result ([3]; lower affinity than TNB): binds more weakly

GGGGCCTTAGGTAAAAAAATACAAAAAAAAAAAAAAAAGAAGAAGAAGAAGAAGAAAATAAAGAAAAATGGTACCGCGG / CCGCGGTACCATTACCTAAGGCCCCAAC [FXN-ANB]
binding result ([2]; weaker than TTCNB and FXN-TNB, 50 ng pBSK/SmaI, label: 5'-32P on Lock-F): binds more weakly

GGGGCCTTAGGTACAGCAGCAGCAGCAGCAGCAGCAGCAGCAGCAGATGGTACCGCGG / CCGCGGTACCATTACCTAAGGCCCCAAC [CAGNB]
binding result ([2]; weaker than CTGNB, 75 ng pBSK/SmaI competitor, label: 5'-32P on Lock-F): binds more weakly

GGGGCCTTAGGTACTGCTGCTGCTGCTGCTGCTGCTGCTGCTGCTGATGGTACCGCGG / CCGCGGTACCATTACCTAAGGCCCCAAC [CTGNB]
binding result ([4]; folded or branched DNA): binds

GGGGCCTTAGGTAGAAGAAGAAGAAGAAGAAGAAGAAGAAGAAGAAATGGTACCGCGG / CCGCGGTACCATTACCTAAGGCCCCAAC [GAANB]
binding result ([2]; weaker than TTCNB, 75 ng pBSK/SmaI competitor): binds more weakly
binding result ([3]; lower affinity than TTCNB): binds more weakly
binding result ([4]; lower than TTCNB, folded or branched …): binds more weakly

GGGGCCTTAGGTATTTTTTTTTTTTTTTTTTTTTTTTTTTTTTTTTATGGTACCGCGG / CCGCGGTACCATTACCTAAGGCCCCAAC [TNB]
binding result ([4]; folded or branched DNA): binds
